Laboratory results from PubChem BioAssay AID1508600 (Functional Genomics Laboratory (NCATS/FGL), 2020).
Hit rate of the full screen: of about 53,000 sequences, about 3,700 (7%) were called active.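 The calls were made as follows: active = gene knockdowns whose robust z-score for IL-1 alpha signal is at least 2 or at most -2, so actives lie on both sides; inactive = the rest.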 Some of the results follow.

Experiment: Components of the Cytosolic LPS Sensing Pathway: Gene Identification via Genome-wide siRNA Screen;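 also: robust z of the log signal after scaling to non-targeting control siRNA wells of the plate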
Conditions: RAW264.7 macrophages, IL-1a HTRF, actives lie on both sides, screened at 100 nM (by protocol), cells primed 5 h with Pam3CSK4 first
Method in brief: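 IL-1a HTRF of supernatants after 24 hour LipidA transfection of Pam3CSK4-primed (5 hours) RAW264.7 cells, 48h post-siRNA transfection (100 nM). Scores: percent of plate negative-control median, then log-based robust z-score.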

Sequence	z-score
CCGCUUUGUCAGCAUGUGGTT against Tmem259	inactive: -0.313
GGAUAGAAACAUCUUGUCUTT against Smcp	inactive: 0.412
GGUGGUAAAGAUUACAUCUTT against Sarnp	inactive: 0.512
CGCUCCAUCCAAGAGUUCUTT against Gp1bb	inactive: 1.95
GCUGGAAUGCAAGGGCUUCTT against Gchfr	inactive: 1.45
CCUCACAAAGCACAAUAUCTT against Sntg1	inactive: -1.46
GGAAUACACCAUUUAACAATT against Acbd5	inactive: 1.32
GGAAGUGUCAGGAUAUAUUTT against Cfap299	inactive: 0.408
GCGGAACCUGAACAUUCGUTT against Zhx2	inactive: 0.523
GGGCCAACAAACUGUUUAATT against Lysmd2	inactive: -0.263
GCCGUCAUUUUGCCUCGAUTT against Zswim3	inactive: -0.542
GCAGAGAUAUCAAAUGGGATT against Atp6v1a	inactive: -1.07
GGGUUCAACACAGCCAAUGTT against Fam151a	inactive: 0.987
GGAGGAAGAAACAACAAUGTT against Calhm5	inactive: 0.76
CCAGUUUUUCGAGUAUACGTT against Galnt12	inactive: -0.321
GGCUCAAUAAAAUGAAGUGTT against Elovl2	active: 2.03
GGAGACUGCUUUCCUCUACTT against Wnt9a	inactive: -0.283
GGUGAUUUCGGGUAACGAGTT against Ddr1	active: -2.17
GGCAGUGGCCGAAAAGACUTT against Fzd7	inactive: -0.0835
GCACAUGGUGAUUUAUAUATT against Ostn	inactive: -0.448
GGGCAAAUCCUUUAGUUUGTT against Siae	inactive: -0.62
CCGACCCAAUUAAUGAUCATT against Tlcd2	inactive: -1.12

Sequence	z-score
GGUGCAGGCCAUGAUUUACTT against C1qtnf4	active: 2.65
CGCAAAGGAAGAAAUGCUGTT against Klra17	inactive: 0.0433
GCACUCAAAUGGUAGAUUCTT against Socs6	inactive: -0.315
GGAAGAGAGAUGGAAAAAATT against Gcnt1	inactive: -0.267
GGAAAGGAGAAGAGAAAUGTT against Scyl1	inactive: 1.18
GCCUCACAACUCUUACACCTT against Ptprc	inactive: 0.954
GGCUUUUUGUCUAACAAGUTT against Trappc13	inactive: 0.23
GGAGCAGAUACCCUAGCCUTT against Mtx1	inactive: 0.698
GGUCAAUAUUCUUAUGUCCTT against S1pr3	inactive: 0.245
GGAAGAUGAUAACAACAACTT against Kif3c	inactive: 1.02
GGCUUUUUAUUCAAAUCCCTT against Ky	inactive: 0.323
GAAGCAGAACUUGAGCAAGTT against Phgdh	active: 2.07
GGCUUAGAGUCAUCUUUAATT against Mia2	inactive: -0.0357
CCCAGGACUCGGAUUAGAATT against Slc25a41	inactive: 0.706
CCCAUUGGUAUACUUGGAUTT against 2210407C18Rik	inactive: -0.293
CCCUACGCUUCAUCAAGCUTT against Glp1r	inactive: 0.926
GGUCUACCUGGAGUAAUGCTT against Sp1	inactive: -0.636
GGCAGAGGAAAUUCUGGAGTT against Rpl11	inactive: 0.482
GGCAAAACCACAAUGAACUTT against Ncaph2	inactive: 0.294
GGUGUUUUUGUCCAGGUCATT against Kcnk3	inactive: -0.618
GGCAUAUAUACAUACCUCCTT against Olfr1389	inactive: -0.334
GGUAUUCACACUGAAGCCCTT against H2-DMa	inactive: 0.108

Sequence	z-score
GGAUGAGAAAUACUUUCGGTT against C8a	inactive: 0.126
ACCUUCAACACCAGUUUGGTT against Olfr1393	inactive: -0.654
GGAUAGAUGCAACAAGUUUTT against Zc3hav1l	inactive: 1.75
GGCCCAGAACAGAAAACUCTT against Clec1a	inactive: -0.582
CCAUCAAGGGAGGUCCUUUTT against Renbp	inactive: -0.291
GGCCACCUAUAUGCUGAAGTT against Ngef	inactive: 0.792
GGACCAAUAAAUCCUGAUATT against Gzmm	inactive: -0.108
GGAUAUACCAACCUACAAATT against Plxnc1	inactive: 1.03
GGAGAAGUUUGAAGAGAUGTT against Cct5	active: -2.24
GCUCCCACGAUAUAGCCACTT against Gm839	inactive: 0.87
GCCUGGAGAAGUGAACUCUTT against Tll1	inactive: -1.65
GGAAAUAUGUGUCCGCACUTT against Mfap2	inactive: -0.0699
GGUAGAACAGUGCUUAAAGTT against Nepro	inactive: -1.48
GCUCUCUUAUUGUGAACCUTT against Olfr1168	inactive: 0.69
CGCAUUCUACGCCUUUAUGTT against Wbp11	inactive: 0.0351
GGAAUCUCAGCCUUGAAAGTT against Naxd	inactive: 0.746
CCGUGUUCUUAUGGGUUUUTT against Fgf13	inactive: 1.3
CCACCAUCGGUUGUUAGUUTT against Actg1	inactive: 1.81
CCUUAAUGAUGAUCCUAUATT against Neu3	inactive: 1.66
GAUAGGGAAUGCCAUACCGTT against Zfp771	inactive: 0.343
CCUGACUCCGAUUUUGAGUTT against Elp3	inactive: -1.12
GCAGGUAUGUACCGUUUCUTT against Etos1	inactive: 0.585

Sequence	z-score
GCUUGAAUCUAGCAGCUUUTT against Dvl1	inactive: 0.404
GGCCACGACUCUUUGUUUATT against Ush1g	inactive: -0.115
GGAUUCUGUCUCCAGAUAUTT against Cabcoco1	inactive: 1.3
CCUCUUGGUCGAAUUAUUATT against Hmgxb3	inactive: 1.08
GGAGAAAAUACAACUGUGATT against Ctrc	inactive: -1.05
CCCGGAGUGGAAUUUACAGTT against Llgl1	inactive: 1.35
GGAACUAAUGAAACAGCUGTT against Abat	inactive: -1.15
GGGCAUCUUUGCAUUCAAGTT against Frs3	inactive: 1.23
GGUGGAUGCCUUGAAUAUGTT against 1700029P11Rik	active: -2.25
GCAAAUUUACCUCAGUGCUTT against Olfr53	inactive: 0.613
GCAUGAUAGGCCUGUUAUUTT against Gm4922	inactive: 1.07
GGCCUGUGGUUAUGCUGUGTT against Cyp2b10	inactive: -0.716
GCAACAGGUUAGCGAAACCTT against Hrk	inactive: -0.0754
GGAGUAUCUUGAAAUGCAUTT against Gsap	inactive: -1.02
CGAGUGAGUAUUUUCUCUUTT against Gdf10	inactive: -0.407
GGAUGAAGAACUGAAAUCUTT against Unc13b	inactive: 0.167
GCUAUAGUGCCAAAUUUGCTT against Alad	inactive: 0.0389
GGAAUAUGAGAGAAGCUCATT against Dpf2	inactive: -0.861
GGUAUAAGGUCAUAGAAUUTT against E230016K23Rik	inactive: 0.429
GCAACUAUCUGCUUAUUUATT against Tmem184a	inactive: 0.428
GCUGCUACUCUGGAGAAGCTT against Fcrlb	inactive: -0.225
GCCCUCAAAUGGCUUGAACTT against Lysmd4	inactive: 1.06

Part of the list above, as labelled records.
GCCUCACAACUCUUACACCTT against Ptprc
  z-score: inactive: 0.954
GGCUUUUUGUCUAACAAGUTT against Trappc13
  z-score: inactive: 0.23

Additional results

Sequence	z-score
CCGGAUUGUGAUCUGUUACTT against Bckdha	inactive: 0.728
GCUUUAGUUGCUUUCCCUGTT against Gm5409	inactive: 1.11
UGCUCUCAAGCUUCAUUCUTT against Rarb	inactive: 0.326
CCGUCUUCUGCUGUGGAACTT against Ctrc	active: 2.6
CCUCGAGAGACUCAUACUGTT against Nlrc4	inactive: -0.131
GUUACACAGGAGUGUGUAATT against Rnase2a	inactive: 0.573
CCUAAUGAAUGGCUAAAUATT against Sh2b2	inactive: 0.655
GCACCUAAGAUCACAGCCUTT against Sh3gl1	inactive: -1.7
GGAUGAGUUCUUUAUGGAGTT against Cdh15	inactive: 0.734
GGAGCUGAAGACCACAAAGTT against Tbata	inactive: -1.29
GGCAGCACCUAAACAAAAGTT against Rpl24	inactive: -1.19
GGAAAAAAAGGUAGCUGGATT against Tspyl4	active: 2.82
GGUAUUGUCUCUAGGAGACTT against 4932414J04Rik	inactive: 1.91
GGUAUCUGUGCAAGGGCAATT against Defb5	active: 2.07
GGUGCUACCUCUAGAUAUUTT against Utp3	inactive: 1.96
GCAUGAAUUGUGGAAGAGATT against Csnk1a1	active: 2.71
GCCAGGUGUGGUGACUCAUTT against Tprkb	inactive: 0.584
GUGAAGAGGAGCAGGACUUTT against Klrc3	inactive: 0.261
GGGAUCCUUAUUUCAUACUTT against Olfr868	inactive: 1.16
CCCGUCCCAUCCAUUAUUUTT against Zfp787	inactive: -1.19

Quoted at random: 6 entries already listed
Sequence	z-score
CCCGUCCCAUCCAUUAUUUTT against Zfp787	inactive: -1.19
GGUAUUGUCUCUAGGAGACTT against 4932414J04Rik	inactive: 1.91
GUGAAGAGGAGCAGGACUUTT against Klrc3	inactive: 0.261
CCUCGAGAGACUCAUACUGTT against Nlrc4	inactive: -0.131
CCGUCUUCUGCUGUGGAACTT against Ctrc	active: 2.6
GUUACACAGGAGUGUGUAATT against Rnase2a	inactive: 0.573
